Measured values published in publication PMC11445230.
Results are given in words; binding and its absence hold for the method and conditions named. Binding seen in cells or lysates may run through a third protein. Binding can be weak; no strength is given. Sequences can lack the tags named with a protein.

Protein sequences, listed by entry. Tags and fused reporters are not part of them. Lines headed by an entry give the natural chain unless they say otherwise; changes in a name come on top.
UniProt Q9Y653: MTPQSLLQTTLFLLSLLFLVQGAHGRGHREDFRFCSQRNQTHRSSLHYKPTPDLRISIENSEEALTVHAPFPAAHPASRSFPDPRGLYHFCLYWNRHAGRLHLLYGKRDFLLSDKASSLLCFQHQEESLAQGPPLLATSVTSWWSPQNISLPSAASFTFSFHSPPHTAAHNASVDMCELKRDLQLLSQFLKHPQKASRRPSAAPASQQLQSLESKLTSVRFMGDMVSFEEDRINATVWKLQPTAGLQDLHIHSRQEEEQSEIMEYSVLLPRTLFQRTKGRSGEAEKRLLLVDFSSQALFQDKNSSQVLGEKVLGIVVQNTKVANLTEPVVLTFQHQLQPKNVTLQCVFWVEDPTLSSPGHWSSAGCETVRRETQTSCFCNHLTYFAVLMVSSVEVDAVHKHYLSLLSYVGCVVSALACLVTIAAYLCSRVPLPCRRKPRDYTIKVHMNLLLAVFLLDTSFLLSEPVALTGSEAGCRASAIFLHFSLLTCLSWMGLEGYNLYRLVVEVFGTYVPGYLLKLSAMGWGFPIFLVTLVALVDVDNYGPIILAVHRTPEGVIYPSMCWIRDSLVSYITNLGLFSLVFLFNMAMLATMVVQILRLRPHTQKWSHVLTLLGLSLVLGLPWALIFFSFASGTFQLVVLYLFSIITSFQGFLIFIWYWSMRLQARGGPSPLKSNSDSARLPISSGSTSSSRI

Target: Purified recombinant GPR56 (GST pull-down) (UniProt Q9Y653)
Test: pull-down; GST pull-down with purified recombinant GPR56; called a direct interaction; which partner carried GST and the source of TGFBR1 not stated

binding: binds
B1: TGFBR1 (GST pull-down) (receptor, UniProt P36897 34-503)
chain: LQCFCHLCTKDNFTCVTDGLCFVSVTETTDKVIHNSMCIAEIDLIPRDRPFVCAPSSKTGSVTTTYCCNQDHCNKIELPTTVKSSPGLGPVELAAVIAGPVCFVCISLMLMVYICHNRTVIHHRVPNEEDPSLDRPFISEGTTLKDLIYDMTTSGSGSGLPLLVQRTIARTIVLQESIGKGRFGEVWRGKWRGEEVAVKIFSSREERSWFREAEIYQTVMLRHENILGFIAADNKDNGTWTQLWLVSDYHEHGSLFDYLNRYTVTVEGMIKLALSTASGLAHLHMEIVGTQGKPAIAHRDLKSKNILVKKNGTCCIADLGLAVRHDSATDTIDIAPNHRVGTKRYMAPEVLDDSINMKHFESFKRADIYAMGLVFWEIARRCSIGGIHEDYQLPYYDLVPSDPSVEEMRKVVCEQKLRPNIPNRWQSCEALRVMAKIMRECWYANGAARLTALRIKKTLSQLSQQEGIKM
